# Source: article PMC4881023, “SALM5 trans-synaptically interacts with LAR-RPTPs in a splicing-dependent manner to regulate synapse development” (Scientific Reports, 2016)
# Sequences of proteins named here, by UniProt entry; tags and fusion partners are left off. A change or cut given only in a name is not applied to a line headed by its entry.
# UniProt P23468: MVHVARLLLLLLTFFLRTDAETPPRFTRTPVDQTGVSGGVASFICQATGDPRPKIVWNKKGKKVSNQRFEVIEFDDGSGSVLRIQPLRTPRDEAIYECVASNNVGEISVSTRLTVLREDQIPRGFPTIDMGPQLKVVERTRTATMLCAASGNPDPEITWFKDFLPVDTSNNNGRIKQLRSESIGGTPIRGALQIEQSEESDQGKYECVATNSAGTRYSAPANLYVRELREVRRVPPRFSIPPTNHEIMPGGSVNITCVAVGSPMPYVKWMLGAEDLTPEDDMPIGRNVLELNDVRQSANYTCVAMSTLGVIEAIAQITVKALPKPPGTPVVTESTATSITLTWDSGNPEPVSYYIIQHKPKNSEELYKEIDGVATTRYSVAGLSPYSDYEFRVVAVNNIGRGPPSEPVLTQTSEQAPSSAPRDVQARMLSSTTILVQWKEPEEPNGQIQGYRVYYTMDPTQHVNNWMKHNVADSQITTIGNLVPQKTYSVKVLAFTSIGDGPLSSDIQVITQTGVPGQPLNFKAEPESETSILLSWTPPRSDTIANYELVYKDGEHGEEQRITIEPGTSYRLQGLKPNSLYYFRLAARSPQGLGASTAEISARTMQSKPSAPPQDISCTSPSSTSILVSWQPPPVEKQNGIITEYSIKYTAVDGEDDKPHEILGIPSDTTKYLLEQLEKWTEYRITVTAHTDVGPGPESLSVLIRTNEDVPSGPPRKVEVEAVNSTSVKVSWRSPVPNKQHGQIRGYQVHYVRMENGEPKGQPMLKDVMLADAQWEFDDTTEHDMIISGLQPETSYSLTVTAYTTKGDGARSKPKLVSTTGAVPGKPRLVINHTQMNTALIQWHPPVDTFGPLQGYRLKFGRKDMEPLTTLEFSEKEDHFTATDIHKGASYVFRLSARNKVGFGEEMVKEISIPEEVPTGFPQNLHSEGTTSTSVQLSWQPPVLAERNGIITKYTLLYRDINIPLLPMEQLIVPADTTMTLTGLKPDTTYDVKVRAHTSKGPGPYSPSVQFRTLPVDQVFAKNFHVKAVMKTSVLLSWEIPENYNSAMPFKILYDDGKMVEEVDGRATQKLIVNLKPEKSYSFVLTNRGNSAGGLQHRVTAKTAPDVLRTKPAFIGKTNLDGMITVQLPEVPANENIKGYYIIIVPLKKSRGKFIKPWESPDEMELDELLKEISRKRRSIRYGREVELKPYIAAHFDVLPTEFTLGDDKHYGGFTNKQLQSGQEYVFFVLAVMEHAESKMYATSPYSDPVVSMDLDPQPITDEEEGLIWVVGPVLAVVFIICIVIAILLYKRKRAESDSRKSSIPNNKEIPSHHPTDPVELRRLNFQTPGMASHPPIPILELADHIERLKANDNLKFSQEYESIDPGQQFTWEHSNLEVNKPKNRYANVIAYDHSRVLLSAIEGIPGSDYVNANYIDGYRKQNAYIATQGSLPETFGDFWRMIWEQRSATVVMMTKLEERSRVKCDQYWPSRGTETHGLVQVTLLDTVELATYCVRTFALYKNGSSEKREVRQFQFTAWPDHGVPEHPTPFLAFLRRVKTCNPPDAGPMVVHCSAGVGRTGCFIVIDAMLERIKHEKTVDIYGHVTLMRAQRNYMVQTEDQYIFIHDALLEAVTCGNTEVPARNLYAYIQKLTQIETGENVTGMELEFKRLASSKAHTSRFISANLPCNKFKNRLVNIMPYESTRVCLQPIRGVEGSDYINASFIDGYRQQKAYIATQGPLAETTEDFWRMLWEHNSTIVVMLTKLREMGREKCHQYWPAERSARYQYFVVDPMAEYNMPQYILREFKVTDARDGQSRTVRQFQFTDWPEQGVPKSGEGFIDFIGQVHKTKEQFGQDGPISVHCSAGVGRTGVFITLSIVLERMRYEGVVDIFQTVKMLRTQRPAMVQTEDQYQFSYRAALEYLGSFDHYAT
# Results are given in words; binding and its absence hold for the method and conditions named. Binding calls can cover weak binding; strength is not graded here.
# Target: T1, SALM5-Ecto-pDis (not stated (mouse and human SALM5 are named for other constructs)) (UniProt Q8BXA0)
# T1 sequence: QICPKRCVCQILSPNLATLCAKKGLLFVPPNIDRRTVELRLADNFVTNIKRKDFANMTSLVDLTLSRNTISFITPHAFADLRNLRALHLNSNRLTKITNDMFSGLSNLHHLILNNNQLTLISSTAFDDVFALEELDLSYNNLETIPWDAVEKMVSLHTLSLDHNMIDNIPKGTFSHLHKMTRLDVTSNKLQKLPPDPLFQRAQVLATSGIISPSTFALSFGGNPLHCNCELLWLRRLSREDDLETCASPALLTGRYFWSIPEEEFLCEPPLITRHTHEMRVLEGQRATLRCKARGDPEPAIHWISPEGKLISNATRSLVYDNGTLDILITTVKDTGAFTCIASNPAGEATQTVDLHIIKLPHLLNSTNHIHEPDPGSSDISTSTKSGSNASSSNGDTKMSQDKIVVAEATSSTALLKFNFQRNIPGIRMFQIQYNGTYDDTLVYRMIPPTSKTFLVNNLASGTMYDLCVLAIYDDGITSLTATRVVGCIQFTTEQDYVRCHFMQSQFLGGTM
# Test: cell aggregation assay; two groups of transfected L cells (EGFP + SALM construct; DsRed + LAR-RPTP construct) trypsinized, resuspended in DMEM, mixed and rotated at room temperature for 2 hours; average aggregate size
row,binding,Substance
1,binds,PTPδ-Ig A^+B^− in pDisplay (human) (domain or fragment)
2,binds,PTPδ-Ig A^−B^− in pDisplay (human) (domain or fragment)
3,binds,PTPδ-Ig (aa 21–309) in pDisplay (from UniProt P23468) (domain or fragment)
